Experimental data from patent publication US20050175608A1 (Kyowa Kirin, published 2005).
These are yes or no findings as the source states them, for the method shown. Binding calls can cover weak binding; strength is not graded here.

How the values were obtained:
[1] = biological target: FGF-8 (manufactured by R & D) (Homo sapiens (Human)); experiment: BIAcore 2000, immobilised FGF-8
[2] = biological target: FGF-8 (manufactured by R & D) (Homo sapiens (Human)); experiment: BIAcore 2000, immobilised FGF-8 (results of Reference Example 2)
[3] = biological target: FGF-8 (manufactured by R & D) (Homo sapiens (Human)); experiment: BIAcore 2000, FGF-8 amine-coupled to CM5 chip (4498 RU), antibody 50 µg/mL; almost no dissociation observed

Binder | binding [1] | binding [2] | binding [3]
anti-FGF-8 neutralizing CDR-grafted antibody HV0LV6 (antibody, V domains shown, HV.0 + LV.6; YB2/0 cell-derived; also called KM8037) VH: QVQLVQSGAEVKKPGASVKVSCKASGYTFTDYYLNWVRQAPGQGLEWMGEIDPGSDSIYYNENLEGRVTITADTSTSTAYMELSSLRSEDTAVYYCARYGYSRYDVRFVYWGQGTLVTVSS VL: DVVMTQSPLSLPVSLGEPASISCRSSQSLVHSNGRTYLEWYLQKPGQSPKVLIYKVSNRISGVPDRFSGSGSGTDFTLKISRVEAEDVGVYFCFQGSHVPYTFGQGTKVEIK | binds | binds | binds
anti-FGF-8 neutralizing CDR-grafted antibody HV0LV0 (antibody, V domains shown, HV.0 + LV.0) VH: QVQLVQSGAEVKKPGASVKVSCKASGYTFTDYYLNWVRQAPGQGLEWMGEIDPGSDSIYYNENLEGRVTITADTSTSTAYMELSSLRSEDTAVYYCARYGYSRYDVRFVYWGQGTLVTVSS VL: DIVMTQSPLSLPVTPGEPASISCRSSQSLVHSNGRTYLEWYLQKPGQSPQLLIYKVSNRISGVPDRFSGSGSGTDFTLKISRVEAEDVGVYYCFQGSHVPYTFGQGTKVEIK | – | – | binds

Second part, the binder after the results:

binding [1] | binding [2] | binding [3] | Binder
– | – | binds | anti-FGF-8 neutralizing CDR-grafted antibody HV6LV6 (antibody, V domains shown, HV.6 + LV.6) VH: QVQLVQSGAEVARPGASVKVSCKASGYTFTDYYLNWVRQRSGQGLEWIGEIDPGSDSIYYNENLEGRVTITADTSTSTAYMELSSLRSEDTAVYFCARYGYSRYDVRFVYWGQGTLVTVSS VL: DVVMTQSPLSLPVSLGEPASISCRSSQSLVHSNGRTYLEWYLQKPGQSPKVLIYKVSNRISGVPDRFSGSGSGTDFTLKISRVEAEDVGVYFCFQGSHVPYTFGQGTKVEIK
– | – | binds | anti-FGF-8 neutralizing chimeric antibody KM3334 (antibody, V domains shown, expressed in YB2/0 cells; also called human chimeric antibody KM3334) VH: QVQLQQSGAEVARPGASVKLSCKASGYTFTDYYLNWVKQRSGQGLEWIGEIDPGSDSIYYNENLEGRATLTADKSSSTAYMQLNSLTSEDSAVYFCARYGYSRYDVRFVYWGQGTLVTVST VL: DVLMTQTPLSLPVSLGDQASISCRSSQSLVHSNGRTYLEWYLQKPGQSPKVLIYKVSNRISGVPDRFSGSGSGTDFTLKISRVEAEDLGVYFCFQGSHVPYTFGGGTKLEIK
